Data set [1] in a line: general procedure: Fmoc solid-phase peptide synthesis; Rink Amide MBHA; HBTU/DIPEA. The settings on record: whole synthesis; for crude HPLC purity: chromatographic purity.
Data set [2] can be described thus: general procedure: Fmoc solid-phase peptide synthesis; 2-CTC; HBTU/DIPEA. The settings on record: whole synthesis; for crude HPLC purity: chromatographic purity.

Some peptides are written in HELM: one residue between dots, names in brackets for other building blocks, links after the first $.

For B-Phe-Glu-Leu-Leu-NH2, in data set [1], the crude yield is 89% and the “crude HPLC purity” value came to 100%.

As to PEPTIDE1{[PyrA].F.E.L.L.[am]}$$$$V2.0, in data set [1], the crude yield is 89% and the “crude HPLC purity” value is given as 85%.

For the substance PEPTIDE1{[PyrA].F.E.L.L}$$$$V2.0, in data set [2], the crude yield came to 49% and the “crude HPLC purity” value came out at 88%.

For the substance PEPTIDE1{[PyrB].F.E.L.L}$$$$V2.0, in data set [2], the crude yield stood at 27% and the “crude HPLC purity” value is recorded as 100%.

(Values after paper PMC10740831 (Biomedicines, 2023).)
